Assay results: the supplement of paper PMC10849652
This is one part of the list.

Chains of the proteins cited; added tags and fusions are not shown. Lines headed by an entry give the natural chain unless they say otherwise; changes in a name come on top.
UniProt Q3T906: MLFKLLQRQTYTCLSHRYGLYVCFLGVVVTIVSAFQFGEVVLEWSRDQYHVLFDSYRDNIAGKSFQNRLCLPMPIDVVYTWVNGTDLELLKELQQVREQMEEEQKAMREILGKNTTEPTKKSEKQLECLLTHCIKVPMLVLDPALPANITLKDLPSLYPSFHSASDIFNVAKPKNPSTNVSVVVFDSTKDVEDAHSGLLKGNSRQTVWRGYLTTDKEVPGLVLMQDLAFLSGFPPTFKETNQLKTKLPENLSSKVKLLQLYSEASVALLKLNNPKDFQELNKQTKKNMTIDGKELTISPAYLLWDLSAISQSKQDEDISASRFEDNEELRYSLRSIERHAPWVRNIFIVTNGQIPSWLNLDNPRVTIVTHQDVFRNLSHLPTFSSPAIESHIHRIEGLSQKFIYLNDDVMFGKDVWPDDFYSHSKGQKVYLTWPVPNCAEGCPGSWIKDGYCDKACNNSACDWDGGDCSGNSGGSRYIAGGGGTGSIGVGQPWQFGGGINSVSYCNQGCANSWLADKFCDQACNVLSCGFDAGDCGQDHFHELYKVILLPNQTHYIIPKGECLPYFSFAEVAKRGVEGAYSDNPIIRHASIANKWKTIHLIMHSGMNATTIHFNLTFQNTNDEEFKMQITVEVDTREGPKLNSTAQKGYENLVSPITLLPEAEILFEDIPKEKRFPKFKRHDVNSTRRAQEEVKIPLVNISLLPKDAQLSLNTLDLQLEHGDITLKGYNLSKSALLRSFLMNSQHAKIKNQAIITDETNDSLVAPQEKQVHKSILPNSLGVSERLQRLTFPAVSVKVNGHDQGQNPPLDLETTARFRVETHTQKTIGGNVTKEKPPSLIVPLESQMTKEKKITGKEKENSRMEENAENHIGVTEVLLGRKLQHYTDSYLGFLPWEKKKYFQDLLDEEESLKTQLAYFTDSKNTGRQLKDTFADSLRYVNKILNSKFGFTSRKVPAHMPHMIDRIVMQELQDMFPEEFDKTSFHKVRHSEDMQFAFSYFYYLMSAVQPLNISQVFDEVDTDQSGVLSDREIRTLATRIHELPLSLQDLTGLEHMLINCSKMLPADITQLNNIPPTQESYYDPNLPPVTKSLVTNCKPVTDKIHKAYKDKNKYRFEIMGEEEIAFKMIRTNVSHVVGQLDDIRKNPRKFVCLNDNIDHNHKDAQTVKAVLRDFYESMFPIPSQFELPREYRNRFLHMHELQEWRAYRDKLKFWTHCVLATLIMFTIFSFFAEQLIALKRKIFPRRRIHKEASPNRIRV
UniProt Q9HAV0, whole entry, looked up: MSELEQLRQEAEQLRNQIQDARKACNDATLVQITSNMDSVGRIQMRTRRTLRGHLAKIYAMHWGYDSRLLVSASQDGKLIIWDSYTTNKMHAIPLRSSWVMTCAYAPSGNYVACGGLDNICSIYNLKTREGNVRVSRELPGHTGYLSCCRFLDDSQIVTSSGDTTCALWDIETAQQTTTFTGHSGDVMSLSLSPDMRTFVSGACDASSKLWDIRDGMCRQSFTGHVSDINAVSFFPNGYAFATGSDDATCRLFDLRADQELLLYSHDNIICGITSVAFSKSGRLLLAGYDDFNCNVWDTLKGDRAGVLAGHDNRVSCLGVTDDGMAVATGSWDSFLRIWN
UniProt P80108: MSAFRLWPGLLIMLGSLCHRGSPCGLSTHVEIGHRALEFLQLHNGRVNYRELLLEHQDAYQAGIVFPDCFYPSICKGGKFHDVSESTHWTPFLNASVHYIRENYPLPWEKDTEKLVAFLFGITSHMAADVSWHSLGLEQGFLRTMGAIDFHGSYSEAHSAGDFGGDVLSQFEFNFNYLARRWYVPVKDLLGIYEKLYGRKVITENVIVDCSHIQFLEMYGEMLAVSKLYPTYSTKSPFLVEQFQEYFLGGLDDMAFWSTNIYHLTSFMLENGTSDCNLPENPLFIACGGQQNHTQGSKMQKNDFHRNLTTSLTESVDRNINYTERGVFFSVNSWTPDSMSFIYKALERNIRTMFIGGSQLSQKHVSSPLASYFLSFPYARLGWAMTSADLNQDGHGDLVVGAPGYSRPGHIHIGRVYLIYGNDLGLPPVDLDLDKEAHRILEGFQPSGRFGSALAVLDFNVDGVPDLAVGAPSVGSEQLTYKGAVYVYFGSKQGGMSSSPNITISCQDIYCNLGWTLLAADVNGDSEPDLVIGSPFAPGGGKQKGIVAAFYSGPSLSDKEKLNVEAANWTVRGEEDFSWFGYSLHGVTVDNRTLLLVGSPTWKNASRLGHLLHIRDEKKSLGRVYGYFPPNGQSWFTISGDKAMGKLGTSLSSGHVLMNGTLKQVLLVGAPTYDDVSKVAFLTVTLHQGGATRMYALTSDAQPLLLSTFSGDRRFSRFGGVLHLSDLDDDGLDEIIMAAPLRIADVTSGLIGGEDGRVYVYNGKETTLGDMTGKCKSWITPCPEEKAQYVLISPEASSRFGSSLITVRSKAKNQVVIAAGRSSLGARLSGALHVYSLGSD
UniProt Q96I76: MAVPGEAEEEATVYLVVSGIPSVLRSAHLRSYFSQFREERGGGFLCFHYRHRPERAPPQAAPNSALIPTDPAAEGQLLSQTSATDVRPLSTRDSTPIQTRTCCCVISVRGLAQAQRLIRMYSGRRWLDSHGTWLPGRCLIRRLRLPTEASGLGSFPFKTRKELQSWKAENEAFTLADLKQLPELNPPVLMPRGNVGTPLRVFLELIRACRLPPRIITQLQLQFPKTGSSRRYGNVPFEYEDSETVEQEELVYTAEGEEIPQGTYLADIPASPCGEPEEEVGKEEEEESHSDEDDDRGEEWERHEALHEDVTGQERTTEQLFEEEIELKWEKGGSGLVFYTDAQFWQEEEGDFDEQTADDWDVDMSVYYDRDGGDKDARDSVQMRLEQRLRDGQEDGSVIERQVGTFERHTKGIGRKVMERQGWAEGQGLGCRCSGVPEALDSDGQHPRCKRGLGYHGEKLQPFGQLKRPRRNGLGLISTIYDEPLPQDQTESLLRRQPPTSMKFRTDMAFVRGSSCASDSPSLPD
UniProt Q5JWF2, whole entry, looked up: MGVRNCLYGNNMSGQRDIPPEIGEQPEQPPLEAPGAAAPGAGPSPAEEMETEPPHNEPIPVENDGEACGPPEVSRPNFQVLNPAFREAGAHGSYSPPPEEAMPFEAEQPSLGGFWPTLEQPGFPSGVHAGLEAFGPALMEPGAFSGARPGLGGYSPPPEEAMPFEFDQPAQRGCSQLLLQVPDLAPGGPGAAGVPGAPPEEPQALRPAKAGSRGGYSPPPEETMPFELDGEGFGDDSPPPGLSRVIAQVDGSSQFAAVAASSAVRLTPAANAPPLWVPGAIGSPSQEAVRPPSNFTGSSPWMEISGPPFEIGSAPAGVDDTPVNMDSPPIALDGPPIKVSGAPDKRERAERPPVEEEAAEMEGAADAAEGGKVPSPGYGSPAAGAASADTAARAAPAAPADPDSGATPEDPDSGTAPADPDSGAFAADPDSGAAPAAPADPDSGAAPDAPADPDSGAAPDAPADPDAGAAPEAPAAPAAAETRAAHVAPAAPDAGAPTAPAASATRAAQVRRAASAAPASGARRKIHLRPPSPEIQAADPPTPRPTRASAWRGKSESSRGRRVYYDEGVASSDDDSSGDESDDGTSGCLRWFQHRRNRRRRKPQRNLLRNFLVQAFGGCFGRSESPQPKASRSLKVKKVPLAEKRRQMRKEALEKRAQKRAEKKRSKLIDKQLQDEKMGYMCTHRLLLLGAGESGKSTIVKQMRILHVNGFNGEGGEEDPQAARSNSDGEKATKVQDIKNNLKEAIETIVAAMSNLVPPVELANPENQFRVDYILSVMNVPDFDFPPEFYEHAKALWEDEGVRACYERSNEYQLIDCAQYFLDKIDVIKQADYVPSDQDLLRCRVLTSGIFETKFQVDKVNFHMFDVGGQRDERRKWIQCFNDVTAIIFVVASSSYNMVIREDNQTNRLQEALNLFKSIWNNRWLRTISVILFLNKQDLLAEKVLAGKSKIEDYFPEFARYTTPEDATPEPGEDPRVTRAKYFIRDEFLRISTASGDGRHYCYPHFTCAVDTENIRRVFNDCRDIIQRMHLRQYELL
UniProt P81274: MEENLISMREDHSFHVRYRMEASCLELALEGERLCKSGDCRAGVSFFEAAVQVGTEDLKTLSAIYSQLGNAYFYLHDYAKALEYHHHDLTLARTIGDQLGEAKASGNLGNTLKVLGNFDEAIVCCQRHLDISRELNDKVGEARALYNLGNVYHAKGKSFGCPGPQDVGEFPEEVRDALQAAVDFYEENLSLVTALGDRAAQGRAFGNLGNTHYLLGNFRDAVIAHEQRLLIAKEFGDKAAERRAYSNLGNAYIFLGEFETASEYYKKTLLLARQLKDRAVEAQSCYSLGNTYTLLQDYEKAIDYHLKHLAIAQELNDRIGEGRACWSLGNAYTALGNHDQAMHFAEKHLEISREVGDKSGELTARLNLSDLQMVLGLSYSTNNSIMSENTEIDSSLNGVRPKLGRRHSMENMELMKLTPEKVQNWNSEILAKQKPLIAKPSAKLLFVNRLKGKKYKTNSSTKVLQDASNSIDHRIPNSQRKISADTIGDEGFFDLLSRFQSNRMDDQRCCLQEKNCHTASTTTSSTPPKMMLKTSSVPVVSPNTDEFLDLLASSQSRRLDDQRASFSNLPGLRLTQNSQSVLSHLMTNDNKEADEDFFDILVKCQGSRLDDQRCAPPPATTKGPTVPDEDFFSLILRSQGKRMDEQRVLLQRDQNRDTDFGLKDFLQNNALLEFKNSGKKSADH
UniProt Q96D09: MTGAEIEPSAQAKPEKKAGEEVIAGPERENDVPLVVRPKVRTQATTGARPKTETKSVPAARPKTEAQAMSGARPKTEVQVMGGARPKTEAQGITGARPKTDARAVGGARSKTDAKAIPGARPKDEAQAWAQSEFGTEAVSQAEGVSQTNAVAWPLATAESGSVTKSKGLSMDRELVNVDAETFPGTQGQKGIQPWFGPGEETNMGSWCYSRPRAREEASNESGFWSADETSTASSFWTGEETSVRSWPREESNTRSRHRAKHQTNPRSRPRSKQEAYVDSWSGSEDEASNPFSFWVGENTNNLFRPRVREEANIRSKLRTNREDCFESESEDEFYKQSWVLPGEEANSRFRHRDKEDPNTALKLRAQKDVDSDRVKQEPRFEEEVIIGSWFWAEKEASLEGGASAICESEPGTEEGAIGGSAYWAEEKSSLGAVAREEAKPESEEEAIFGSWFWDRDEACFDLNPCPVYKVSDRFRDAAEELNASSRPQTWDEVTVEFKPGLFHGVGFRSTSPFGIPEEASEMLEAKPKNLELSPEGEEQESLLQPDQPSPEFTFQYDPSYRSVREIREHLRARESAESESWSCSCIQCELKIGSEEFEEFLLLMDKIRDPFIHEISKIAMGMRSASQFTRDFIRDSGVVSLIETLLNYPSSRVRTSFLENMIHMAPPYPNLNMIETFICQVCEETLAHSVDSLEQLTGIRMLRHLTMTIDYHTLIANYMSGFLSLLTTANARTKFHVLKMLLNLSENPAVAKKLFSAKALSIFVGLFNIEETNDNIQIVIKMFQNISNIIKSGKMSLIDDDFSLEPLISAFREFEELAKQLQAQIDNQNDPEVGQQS
UniProt Q9UBI6: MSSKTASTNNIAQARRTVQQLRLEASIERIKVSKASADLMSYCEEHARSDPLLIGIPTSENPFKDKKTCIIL
UniProt Q14956: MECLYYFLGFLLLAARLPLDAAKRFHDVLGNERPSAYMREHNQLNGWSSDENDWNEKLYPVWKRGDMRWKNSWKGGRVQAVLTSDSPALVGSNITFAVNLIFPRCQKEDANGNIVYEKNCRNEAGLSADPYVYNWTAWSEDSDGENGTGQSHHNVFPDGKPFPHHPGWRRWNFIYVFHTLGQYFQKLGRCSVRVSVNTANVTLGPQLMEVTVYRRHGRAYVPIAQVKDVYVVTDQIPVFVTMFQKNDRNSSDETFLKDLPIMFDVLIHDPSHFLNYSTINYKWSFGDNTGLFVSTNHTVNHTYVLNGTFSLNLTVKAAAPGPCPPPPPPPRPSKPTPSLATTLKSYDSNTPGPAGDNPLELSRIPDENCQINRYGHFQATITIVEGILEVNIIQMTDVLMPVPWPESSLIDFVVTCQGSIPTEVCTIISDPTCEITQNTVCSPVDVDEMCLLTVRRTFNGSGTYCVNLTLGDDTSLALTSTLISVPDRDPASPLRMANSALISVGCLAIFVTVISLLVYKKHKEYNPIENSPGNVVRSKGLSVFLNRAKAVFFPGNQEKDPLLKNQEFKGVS
UniProt Q03113, whole entry, looked up: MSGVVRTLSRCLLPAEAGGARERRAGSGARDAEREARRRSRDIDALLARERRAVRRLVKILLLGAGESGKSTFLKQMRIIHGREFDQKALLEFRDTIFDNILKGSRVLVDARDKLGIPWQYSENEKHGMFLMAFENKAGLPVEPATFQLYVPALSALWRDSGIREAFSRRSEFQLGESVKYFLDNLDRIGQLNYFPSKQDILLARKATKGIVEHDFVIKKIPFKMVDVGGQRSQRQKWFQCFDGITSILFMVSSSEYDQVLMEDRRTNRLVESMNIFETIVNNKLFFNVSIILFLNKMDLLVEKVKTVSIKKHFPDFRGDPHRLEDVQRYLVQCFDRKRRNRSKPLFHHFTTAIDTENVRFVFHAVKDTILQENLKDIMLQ

What was measured:
Test in all cases: log2 fold change, soluble protein after heating vs DMSO (PISA); higher = thermal stabilisation; K562 lysate, 10 uM; active = over 0.2 and 3.5 SD of the protein, either way, in both replicates (recomputed)
[1] = compound: CCN(CCCOc1ccc2c(Nc3cc(CC(=O)Nc4cccc(F)c4)[nH]n3)ncnc2c1)CCOP(=O)(O)O [barasertib]
Procedure, shortened: (§1)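 Following dounce homogenisation of K562 pellets in PBS pH 7.4 with 1 mM MgCl2, crude extract at 1 mg/mL protein was incubated for 30 min with 10 μM compound. Aliquots were then heated for 3 min over 48°C-58°C and pooled, NP-40 was added to 0.5% at 4°C, and soluble protein was recovered as the supernatant at 21,000xg for 90 min. Channel-sum-equalised TMTpro 16plex LC-MS/MS quantified this protein. Each value, from duplicates, is a log-two fold change in thermal stability relative to solvent controls.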

[2] = compound: CCn1c(C(=O)N(C2CC2)C2CC2)cc2c3c(ncn3C)c(Nc3cc(C)n(C)n3)nc21
Procedure, shortened: as §1

[3] = compound: CCn1cc(-c2ccnc3[nH]c(-c4cccc(CN(C)C)c4)cc23)c(-c2ccc(NC(=O)N(C)C)cc2)n1
Procedure, shortened: as §1

[4] = compound: CN1CCC(CNc2ccc3ncc(-c4cccc(OC(F)(F)F)c4)n3n2)CC1
Procedure, shortened: as §1

[5] = compound: CN1CCN(CCOc2cc(OC3CCOCC3)c3c(Nc4c(Cl)ccc5c4OCO5)ncnc3c2)CC1 [saracatinib]
Procedure, shortened: as §1

[6] = compound: CN1CCN(c2nc(C3=C(c4c[nH]c5ccccc45)C(=O)NC3=O)c3ccccc3n2)CC1 [sotrastaurin]
Procedure, shortened: as §1

[7] = compound: CN1CC[C@H](c2c(O)cc(O)c3c(=O)cc(-c4ccccc4Cl)oc23)[C@H](O)C1 [alvocidib]
Procedure, shortened: as §1

[8] = compound: CN1CCc2c(c3ccccc3n2Cc2ccc(C(=O)NO)cc2)C1 [Tubastatin A]
Procedure, shortened: as §1

[9] = compound: CNC(=O)C1=CC=CC=C1NC2=NC(=NC=C2Cl)NC3=C(C=C(C=C3)N4CCOCC4)OC
Procedure, shortened: as §1

[10] = compound: CNc1nc(-c2ccc3c(N)n[nH]c3c2)cc(N2C[C@@H](C(=O)NC3CCCCC3)CC[C@H]2C)n1
Procedure, shortened: as §1

[11] = compound: COc1cc(Nc2ncc3c(n2)-c2ccc(Cl)cc2C(c2c(F)cccc2OC)=NC3)ccc1C(=O)O [alisertib]
Procedure, shortened: as §1

[12] = compound: COc1cc2ncnc(Nc3ccc(F)c(Cl)c3)c2cc1OCCCN1CCOCC1 [gefitinib]
Procedure, shortened: as §1

[13] = compound: CCCS(=O)(=O)Nc1ccc(F)c(C(=O)c2c[nH]c3ncc(Cl)cc23)c1F
Procedure, shortened: as §1

[14] = compound: CC[C@@H]1C(=O)N(C)c2cnc(Nc3ccc(C(=O)NC4CCN(C)CC4)cc3OC)nc2N1C1CCCC1
Procedure, shortened: as §1

[15] = compound: CC[C@@H]1C(=O)N(C)c2cnc(Nc3ccc(C(=O)N[C@H]4CC[C@H](N5CCN(CC6CC6)CC5)CC4)cc3OC)nc2N1C(C)C [volasertib]
Procedure, shortened: as §1

[16] = compound: COC(=O)N[C@@H](C)CNc1nccc(-c2cn(C(C)C)nc2-c2cc(Cl)cc(NS(C)(=O)=O)c2F)n1 [encorafenib]
Procedure, shortened: as §1

[17] = compound: COC(=O)[C@H](CCSC)NC(=O)C1=C(C=C(C=C1)NC[C@H](CS)N)C2=CC=CC=C2
Procedure, shortened: as §1

[18] = compound: COc1cc2nc(-c3cc(F)ccc3O)nc(N[C@@H]3CNC[C@H]3C(C)(C)O)c2cc1OC
Procedure, shortened: as §1

[19] = compound: CCCS(=O)(=O)Nc1ccc(F)c(C(=O)c2c[nH]c3ncc(-c4ccc(Cl)cc4)cc23)c1F [vemurafenib]
Procedure, shortened: as §1

[20] = compound: CNC(=O)c1ccc(Nc2ncc(C(F)(F)F)c(NCc3nccnc3N(C)S(C)(=O)=O)n2)cc1 [defactinib]
Procedure, shortened: as §1

Measured: log2 fold change

GNPTAB (UniProt Q3T906)
inactive: [1] 0.136 | [2] 0.024 | [3] -0.01 | [4] -0.054 | [5] -0.048 | [6] 0.049 | [7] -0.103 | [8] -0.028 | [9] 0.019 | [10] 0.151 | [11] -0.115 | [12] 0.028

GMEB1 isoform 2 (UniProt Q9Y692)
inactive: [2] -0.011 | [6] -0.056 | [8] -0.041 | [11] -0.063 | [12] -0.124

GNB4 (UniProt Q9HAV0)
active: [12] -0.364
inactive: [13] 0.089 | [1] -0.046 | [14] -0.018 | [15] -0.036 | [2] 0.016 | [3] 0.001 | [4] 0.166 | [5] -0.165 | [6] -0.04 | [7] -0.114 | [8] -0.002 | [9] -0.091 | [10] 0.01 | [16] -0.01 | [17] 0.141 | [11] -0.168 | [18] 0.095

GOLGA8R (UniProt I6L899)
inactive: [13] 0.096 | [1] -0.01 | [15] 0.098 | [2] -0.241 | [5] 0.002 | [6] -0.152 | [8] 0.052 | [9] -0.055 | [10] 0.497 | [11] -0.078 | [18] 0.152 | [12] 0.007

GPLD1 (UniProt P80108)
inactive: [5] 0.236 | [6] -0.13 | [10] -0.452

GLDC (UniProt P23378)
inactive: [1] 0.004

GPATCH3 (UniProt Q96I76)
inactive: [2] -0.026 | [3] 0.006 | [4] 0.111 | [6] -0.046 | [7] 0.052 | [8] 0.013 | [9] 0.089

GNAS isoform 2 (UniProt Q5JWF2)
inactive: [1] -0.135

GORASP1 (UniProt Q9BQQ3)
inactive: [19] 0.011 | [13] -0.016 | [14] -0.065 | [15] 0.092 | [2] -0.019 | [3] -0.025 | [4] 0.08 | [5] 0.03 | [6] 0.016 | [7] -0.052 | [8] -0.035 | [9] 0.018 | [20] 0.008 | [10] -0.071 | [16] 0.108 | [17] -0.009 | [11] -0.037 | [18] 0.076 | [12] 0.016

GIPC3 (UniProt Q8TF64)
inactive: [13] -0.119 | [1] 0.055 | [14] -0.15 | [15] -0.041 | [2] -0.045 | [3] -0.01 | [4] 0.144 | [5] 0.029 | [6] 0.006 | [7] -0.108 | [8] -0.071 | [9] 0.055 | [10] -0.157 | [16] 0.028 | [17] 0.05 | [11] -0.194 | [18] 0.008 | [12] 0.073

GPSM2 (UniProt P81274)
inactive: [19] 0.106 | [13] -0.015 | [1] 0.055 | [14] 0.218 | [15] 0.035 | [3] -0.345 | [4] 0.196 | [5] 0.023 | [6] 0.042 | [7] -0.139 | [9] 0.041 | [20] -0.093 | [10] 0.06 | [16] 0.024 | [17] -0.496 | [11] -0.035 | [18] 0.002 | [12] -0.073

GPAM (UniProt Q9HCL2)
inactive: [2] 0.149 | [8] -0.011

GNAS isoform 3 (UniProt P63092)
inactive: [13] 0.013 | [15] 0 | [3] 0.227 | [4] -0.033 | [6] 0.095 | [7] -0.015 | [9] 0.008 | [18] -0.027

GLMP (UniProt Q8WWB7)
inactive: [19] 0.153 | [14] 0.071 | [2] 0.042 | [5] 0.139 | [6] -0.083 | [8] -0.02 | [9] -0.093 | [20] -0.13 | [10] -0.276 | [16] 0.122 | [17] -0.177 | [11] 0.065 | [12] -0.039

GPRASP2 (UniProt Q96D09)
inactive: [19] 0.045 | [1] -0.121 | [14] 0.047 | [2] -0.006 | [8] -0.109 | [20] 0.071 | [16] 0.13 | [17] -0.023 | [11] -0.09 | [12] 0.121

GNG12 (UniProt Q9UBI6)
inactive: [19] -0.084 | [3] -0.055 | [4] -0.007 | [7] 0.043 | [20] 0.068 | [11] 0.096 | [12] -0.08

GPBP1L1 (UniProt Q9HC44)
inactive: [19] -0.021 | [13] 0.106 | [1] -0.012 | [14] 0.087 | [15] -0.094 | [2] -0.031 | [3] -0.058 | [4] 0.048 | [5] 0.045 | [6] -0.064 | [7] -0.005 | [8] -0.055 | [9] 0.008 | [20] 0.022 | [10] 0.006 | [16] 0.067 | [17] -0.057 | [18] -0.034

GPNMB (UniProt Q14956)
inactive: [13] 0.108 | [1] 0.077 | [15] 0.002 | [3] -0.634 | [4] 0.139 | [5] 0.096 | [6] -0.123 | [7] -0.247 | [10] 0.898 | [11] -0.19 | [18] 0.161 | [12] 0.015

GNAI1 (UniProt P63096)
inactive: [3] -0.098 | [4] 0.061 | [7] -0.019

2 neighbouring records already listed:
GPRASP2 (UniProt Q96D09)
inactive: [19] 0.045 | [1] -0.121 | [14] 0.047 | [2] -0.006 | [8] -0.109 | [20] 0.071 | [16] 0.13 | [17] -0.023 | [11] -0.09 | [12] 0.121

GNG12 (UniProt Q9UBI6)
inactive: [19] -0.084 | [3] -0.055 | [4] -0.007 | [7] 0.043 | [20] 0.068 | [11] 0.096 | [12] -0.08

Later entries.

GNA12 (UniProt Q03113)
inactive: [19] 0.196 | [13] -0.047 | [1] 0.117 | [14] -0.17 | [15] 0.01 | [2] -0.012 | [5] -0.048 | [6] -0.218 | [8] 0.075 | [20] -0.31 | [10] 0.128 | [16] -0.122 | [17] 0.001 | [18] 0.058
